According to the supplement of paper PMC7661543:
± gives the standard deviation of the averaged measurements. The effect of the compound repeats well; differences between the knockouts mostly do not.

Tested on: BT-20
Test: relative cell number vs DMSO control (72 h) (% of DMSO); higher = less growth inhibition (more cells)
Protocol: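 QMAP-Seq: a pool of 5 breast cancer cell lines (ZR-75-1, SKBR3, HCC-38, MDA-MB-231, BT-20), each carrying 12 doxycycline-inducible Cas9 sgRNA perturbations (11 knockouts plus non-targeting sgNT), was treated with compounds for 72 h at four 10-fold doses (10 nM-10 uM or 1 nM-1 uM range). Barcodes were amplified and sequenced, and cell number was interpolated from 293T spike-in standard curves. The result is expressed as % of the median of DMSO wells. Two biological replicates.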

[1] = sgRNA knockout: sgATF3, 1000 nM
[2] = sgRNA knockout: sgATF3, 10000 nM
[3] = sgRNA knockout: sgATF4, 1000 nM
[4] = sgRNA knockout: sgATF4, 10000 nM
[5] = sgRNA knockout: sgATF6, 1000 nM
[6] = sgRNA knockout: sgATF6, 10000 nM
[7] = sgRNA knockout: sgATG7, 1000 nM
[8] = sgRNA knockout: sgATG7, 10000 nM
[9] = sgRNA knockout: sgERN1, 1000 nM
[10] = sgRNA knockout: sgERN1, 10000 nM
[11] = sgRNA knockout: sgHSF1, 1000 nM
[12] = sgRNA knockout: sgHSF1, 10000 nM
[13] = sgRNA knockout: sgHSF2, 1000 nM
[14] = sgRNA knockout: sgHSF2, 10000 nM
[15] = sgRNA knockout: sgKEAP1, 100 nM
[16] = sgRNA knockout: sgKEAP1, 1000 nM
[17] = sgRNA knockout: sgKEAP1, 10000 nM
[18] = sgRNA knockout: sgNFE2L2, 10 nM
[19] = sgRNA knockout: sgNFE2L2, 100 nM
[20] = sgRNA knockout: sgNFE2L2, 1000 nM
[21] = sgRNA knockout: sgNFE2L2, 10000 nM
[22] = sgRNA knockout: sgSLC35F2, 10 nM
[23] = sgRNA knockout: sgSLC35F2, 100 nM
[24] = sgRNA knockout: sgSLC35F2, 1000 nM
[25] = sgRNA knockout: sgSLC35F2, 10000 nM
[26] = sgRNA knockout: sgXBP1, 1000 nM
[27] = sgRNA knockout: sgXBP1, 10000 nM

**Q.** With `CCOC(=O)c1ccc(N2NC(=O)C(=Cc3ccc([N+](=O)[O-])o3)C2=O)cc1` [PYR41] as the molecule, how does the relative cell number (sgRNA knockout: sgATF3, 10 nM) read?
**A.** 91.9 ± 6.8

**Q.** And the relative cell number (sgRNA knockout: sgATF3, 100 nM)?
**A.** 94.5 ± 4.5

**Q.** And the relative cell number [1]?
**A.** 117 ± 3.3

**Q.** And the relative cell number [2]?
**A.** 89.4 ± 16

**Q.** And the relative cell number (sgRNA knockout: sgATF4, 10 nM)?
**A.** 105 ± 4

**Q.** What about the relative cell number (sgRNA knockout: sgATF4, 100 nM) of the same molecule?
**A.** 86.3 ± 9.8

**Q.** What about the relative cell number [3] of the same molecule?
**A.** 110 ± 3.4

**Q.** What about the relative cell number [4] of the same molecule?
**A.** 95.9 ± 6.3

**Q.** And the relative cell number (sgRNA knockout: sgATF6, 10 nM)?
**A.** 96.5 ± 9.6

**Q.** And the relative cell number (sgRNA knockout: sgATF6, 100 nM)?
**A.** 98.7 ± 6.9

**Q.** And the relative cell number [5]?
**A.** 123 ± 18

**Q.** And the relative cell number [6]?
**A.** 101.5 ± 0.52

**Q.** And the relative cell number (sgRNA knockout: sgATG7, 10 nM)?
**A.** 99.6 ± 7

**Q.** What about the relative cell number (sgRNA knockout: sgATG7, 100 nM) of the same molecule?
**A.** 95.2 ± 8.4

**Q.** What about the relative cell number [7] of the same molecule?
**A.** 122.3 ± 0.14

**Q.** And the relative cell number [8]?
**A.** 99.6 ± 3

**Q.** And the relative cell number (sgRNA knockout: sgERN1, 10 nM)?
**A.** 94.5 ± 18

**Q.** What about the relative cell number (sgRNA knockout: sgERN1, 100 nM) of the same molecule?
**A.** 101 ± 7.3

**Q.** What about the relative cell number [9] of the same molecule?
**A.** 116 ± 9.9

**Q.** And the relative cell number [10]?
**A.** 102 ± 9.6

**Q.** And the relative cell number (sgRNA knockout: sgHSF1, 10 nM)?
**A.** 101 ± 2.9

**Q.** And the relative cell number (sgRNA knockout: sgHSF1, 100 nM)?
**A.** 89.1 ± 4.1

**Q.** And the relative cell number [11]?
**A.** 109 ± 18

**Q.** What about the relative cell number [12] of the same molecule?
**A.** 102 ± 11

**Q.** What about the relative cell number (sgRNA knockout: sgHSF2, 10 nM) of the same molecule?
**A.** 98.4 ± 1.9

**Q.** And the relative cell number (sgRNA knockout: sgHSF2, 100 nM)?
**A.** 99.8 ± 9.2

**Q.** And the relative cell number [13]?
**A.** 123 ± 24

**Q.** What about the relative cell number [14] of the same molecule?
**A.** 106 ± 25

**Q.** And the relative cell number (sgRNA knockout: sgKEAP1, 10 nM)?
**A.** 101 ± 3

**Q.** What about the relative cell number [15] of the same molecule?
**A.** 95.9 ± 1.9

**Q.** And the relative cell number [16]?
**A.** 101 ± 1.5

**Q.** And the relative cell number [17]?
**A.** 94.9 ± 8

**Q.** And the relative cell number [18]?
**A.** 97.4 ± 5.7

**Q.** And the relative cell number [19]?
**A.** 84.7 ± 11

**Q.** What about the relative cell number [20] of the same molecule?
**A.** 123 ± 17

**Q.** What about the relative cell number [21] of the same molecule?
**A.** 113 ± 22

**Q.** And the relative cell number [22]?
**A.** 88.5 ± 4.4

**Q.** What about the relative cell number [23] of the same molecule?
**A.** 87.5 ± 11

**Q.** And the relative cell number [24]?
**A.** 106 ± 19

**Q.** What about the relative cell number [25] of the same molecule?
**A.** 106 ± 1.7

**Q.** What about the relative cell number (sgRNA knockout: sgXBP1, 10 nM) of the same molecule?
**A.** 96.1 ± 3.7

**Q.** What about the relative cell number (sgRNA knockout: sgXBP1, 100 nM) of the same molecule?
**A.** 95.12 ± 0.68

**Q.** And the relative cell number [26]?
**A.** 117 ± 10

**Q.** What about the relative cell number [27] of the same molecule?
**A.** 112 ± 5.2

**Q.** What does the source list for `O=C(CCc1ccc(O)cc1)c1c(O)cc(O)cc1O` [Phloretin]?
**A.** relative cell number (sgRNA knockout: sgATF3, 10 nM): 107 ± 5.6; relative cell number (sgRNA knockout: sgATF3, 100 nM): 114 ± 4.9; relative cell number [1]: 111 ± 11; relative cell number [2]: 109 ± 24; relative cell number (sgRNA knockout: sgATF4, 10 nM): 117 ± 14; relative cell number (sgRNA knockout: sgATF4, 100 nM): 114 ± 15; relative cell number [3]: 106 ± 8; relative cell number [4]: 130 ± 24; relative cell number (sgRNA knockout: sgATF6, 10 nM): 91.7 ± 9.5; relative cell number (sgRNA knockout: sgATF6, 100 nM): 101 ± 12; relative cell number [5]: 103.8 ± 0.95; relative cell number [6]: 113 ± 16; relative cell number (sgRNA knockout: sgATG7, 10 nM): 103 ± 16; relative cell number (sgRNA knockout: sgATG7, 100 nM): 101 ± 3.4; relative cell number [7]: 100 ± 2.3; relative cell number [8]: 114 ± 4; relative cell number (sgRNA knockout: sgERN1, 10 nM): 114 ± 10; relative cell number (sgRNA knockout: sgERN1, 100 nM): 107.3 ± 0.39; relative cell number [9]: 95.9 ± 24; relative cell number [10]: 109 ± 20; relative cell number (sgRNA knockout: sgHSF1, 10 nM): 111 ± 8.2; relative cell number (sgRNA knockout: sgHSF1, 100 nM): 102 ± 20; relative cell number [11]: 102 ± 16; relative cell number [12]: 105 ± 21; relative cell number (sgRNA knockout: sgHSF2, 10 nM): 97.3 ± 26; relative cell number (sgRNA knockout: sgHSF2, 100 nM): 103 ± 26; relative cell number [13]: 114 ± 3.4; relative cell number [14]: 117 ± 43; relative cell number (sgRNA knockout: sgKEAP1, 10 nM): 113 ± 9.3; relative cell number [15]: 94.2 ± 13; relative cell number [16]: 96 ± 3.4; relative cell number [17]: 109 ± 12; relative cell number [18]: 104 ± 30; relative cell number [19]: 113 ± 12; relative cell number [20]: 102 ± 21; relative cell number [21]: 119 ± 20; relative cell number [22]: 107 ± 4; relative cell number [23]: 101 ± 6.2; relative cell number [24]: 103 ± 7.9; relative cell number [25]: 109 ± 9.7; relative cell number (sgRNA knockout: sgXBP1, 10 nM): 96.8 ± 16; relative cell number (sgRNA knockout: sgXBP1, 100 nM): 101 ± 1.1; relative cell number [26]: 110 ± 12; relative cell number [27]: 124 ± 18
